# According to the supplement of paper PMC10849652:
# Chains of the proteins cited; added tags and fusions are not shown. Lines headed by an entry give the natural chain unless they say otherwise; changes in a name come on top.
# UniProt O43379: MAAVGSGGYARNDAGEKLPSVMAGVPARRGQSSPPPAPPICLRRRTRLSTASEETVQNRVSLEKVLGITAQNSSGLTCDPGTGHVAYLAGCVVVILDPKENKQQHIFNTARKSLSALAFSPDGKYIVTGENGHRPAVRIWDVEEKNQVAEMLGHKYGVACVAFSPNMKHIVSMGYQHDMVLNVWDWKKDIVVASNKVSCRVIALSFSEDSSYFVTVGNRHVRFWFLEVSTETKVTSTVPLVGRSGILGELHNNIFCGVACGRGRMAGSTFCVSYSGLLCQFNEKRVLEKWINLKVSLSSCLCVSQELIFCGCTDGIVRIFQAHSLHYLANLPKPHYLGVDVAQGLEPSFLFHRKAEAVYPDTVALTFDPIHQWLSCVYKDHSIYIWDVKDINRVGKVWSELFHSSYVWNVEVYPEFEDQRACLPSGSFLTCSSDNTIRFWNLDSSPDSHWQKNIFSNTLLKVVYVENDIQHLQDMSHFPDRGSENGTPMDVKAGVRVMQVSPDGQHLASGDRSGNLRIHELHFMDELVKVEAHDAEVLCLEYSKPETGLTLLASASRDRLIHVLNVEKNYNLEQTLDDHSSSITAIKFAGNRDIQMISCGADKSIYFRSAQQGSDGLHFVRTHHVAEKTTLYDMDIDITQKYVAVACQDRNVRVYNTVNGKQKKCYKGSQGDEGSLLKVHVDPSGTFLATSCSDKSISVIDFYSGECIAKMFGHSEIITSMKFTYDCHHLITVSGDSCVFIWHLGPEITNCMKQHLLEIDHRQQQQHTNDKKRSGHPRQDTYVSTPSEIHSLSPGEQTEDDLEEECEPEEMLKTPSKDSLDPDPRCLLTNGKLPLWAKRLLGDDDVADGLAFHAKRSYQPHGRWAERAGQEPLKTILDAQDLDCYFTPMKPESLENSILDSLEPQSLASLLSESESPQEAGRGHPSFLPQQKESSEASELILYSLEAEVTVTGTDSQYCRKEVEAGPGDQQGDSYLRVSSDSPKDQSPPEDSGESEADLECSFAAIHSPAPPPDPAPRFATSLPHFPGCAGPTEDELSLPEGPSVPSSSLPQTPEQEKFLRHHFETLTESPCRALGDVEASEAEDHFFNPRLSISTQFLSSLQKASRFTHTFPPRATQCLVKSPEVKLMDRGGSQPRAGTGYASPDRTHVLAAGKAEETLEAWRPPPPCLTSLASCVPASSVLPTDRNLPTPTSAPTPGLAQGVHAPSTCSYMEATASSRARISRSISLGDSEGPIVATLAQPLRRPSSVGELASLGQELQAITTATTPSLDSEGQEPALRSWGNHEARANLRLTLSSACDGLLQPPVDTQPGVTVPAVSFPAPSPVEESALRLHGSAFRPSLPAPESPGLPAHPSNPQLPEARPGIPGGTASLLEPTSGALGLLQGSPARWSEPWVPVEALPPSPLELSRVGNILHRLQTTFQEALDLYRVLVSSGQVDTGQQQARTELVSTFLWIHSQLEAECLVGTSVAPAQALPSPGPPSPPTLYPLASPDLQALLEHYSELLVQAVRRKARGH
# UniProt Q9HBM0: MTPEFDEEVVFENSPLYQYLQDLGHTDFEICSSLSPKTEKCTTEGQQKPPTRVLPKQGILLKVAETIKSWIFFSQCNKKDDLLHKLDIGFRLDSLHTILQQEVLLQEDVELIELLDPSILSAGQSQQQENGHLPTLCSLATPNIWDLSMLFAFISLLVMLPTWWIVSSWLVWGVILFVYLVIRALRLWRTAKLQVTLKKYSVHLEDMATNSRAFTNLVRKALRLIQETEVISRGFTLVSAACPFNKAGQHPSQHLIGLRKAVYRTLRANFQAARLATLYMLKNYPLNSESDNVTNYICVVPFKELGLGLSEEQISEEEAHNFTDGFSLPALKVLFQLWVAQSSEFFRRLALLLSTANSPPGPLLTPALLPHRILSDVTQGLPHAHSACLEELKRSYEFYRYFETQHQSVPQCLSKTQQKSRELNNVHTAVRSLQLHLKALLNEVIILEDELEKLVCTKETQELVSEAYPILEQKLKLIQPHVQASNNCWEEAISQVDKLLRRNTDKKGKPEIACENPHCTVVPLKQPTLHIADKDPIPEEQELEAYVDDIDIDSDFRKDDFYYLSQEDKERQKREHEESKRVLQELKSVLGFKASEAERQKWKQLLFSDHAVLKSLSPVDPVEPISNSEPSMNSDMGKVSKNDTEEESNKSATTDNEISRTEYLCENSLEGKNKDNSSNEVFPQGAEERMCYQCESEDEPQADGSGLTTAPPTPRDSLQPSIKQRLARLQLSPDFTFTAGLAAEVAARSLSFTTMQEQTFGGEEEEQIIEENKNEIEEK
# UniProt Q9Y484: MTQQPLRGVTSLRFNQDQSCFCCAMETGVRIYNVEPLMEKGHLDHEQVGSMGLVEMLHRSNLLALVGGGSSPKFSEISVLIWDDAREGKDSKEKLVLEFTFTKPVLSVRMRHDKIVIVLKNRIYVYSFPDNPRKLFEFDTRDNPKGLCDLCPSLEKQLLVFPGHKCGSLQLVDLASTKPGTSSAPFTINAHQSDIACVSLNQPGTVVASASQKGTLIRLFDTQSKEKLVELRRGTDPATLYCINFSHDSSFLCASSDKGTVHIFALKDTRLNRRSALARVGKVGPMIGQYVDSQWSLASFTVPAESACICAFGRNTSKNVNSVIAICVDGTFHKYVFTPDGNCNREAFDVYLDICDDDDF
# UniProt A6NGB9: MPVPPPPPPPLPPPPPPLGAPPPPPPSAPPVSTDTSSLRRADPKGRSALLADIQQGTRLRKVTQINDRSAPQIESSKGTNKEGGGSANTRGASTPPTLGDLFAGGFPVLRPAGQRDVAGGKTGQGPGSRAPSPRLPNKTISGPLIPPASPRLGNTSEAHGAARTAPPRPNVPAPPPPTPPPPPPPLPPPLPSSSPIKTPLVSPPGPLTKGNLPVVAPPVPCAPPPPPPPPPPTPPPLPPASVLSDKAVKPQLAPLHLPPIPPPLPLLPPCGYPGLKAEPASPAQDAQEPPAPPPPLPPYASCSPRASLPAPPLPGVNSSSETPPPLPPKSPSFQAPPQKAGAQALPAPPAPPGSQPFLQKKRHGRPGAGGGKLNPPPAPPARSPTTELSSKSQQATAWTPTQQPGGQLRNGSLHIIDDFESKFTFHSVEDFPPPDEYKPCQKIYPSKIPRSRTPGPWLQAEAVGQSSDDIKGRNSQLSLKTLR
# UniProt Q96EX3: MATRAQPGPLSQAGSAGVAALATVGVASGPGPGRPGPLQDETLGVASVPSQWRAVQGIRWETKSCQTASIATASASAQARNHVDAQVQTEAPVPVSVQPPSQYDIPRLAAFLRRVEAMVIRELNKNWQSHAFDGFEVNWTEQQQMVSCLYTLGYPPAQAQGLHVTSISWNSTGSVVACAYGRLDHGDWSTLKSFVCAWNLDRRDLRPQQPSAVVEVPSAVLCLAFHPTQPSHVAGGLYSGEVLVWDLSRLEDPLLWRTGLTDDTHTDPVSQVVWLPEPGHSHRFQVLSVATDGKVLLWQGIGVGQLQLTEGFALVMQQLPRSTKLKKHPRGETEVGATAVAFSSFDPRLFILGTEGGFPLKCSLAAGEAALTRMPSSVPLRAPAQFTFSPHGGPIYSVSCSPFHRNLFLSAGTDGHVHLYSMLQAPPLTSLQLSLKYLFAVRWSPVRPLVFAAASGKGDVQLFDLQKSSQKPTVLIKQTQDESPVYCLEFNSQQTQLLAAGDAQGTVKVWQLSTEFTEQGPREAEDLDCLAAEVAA
# UniProt O95785: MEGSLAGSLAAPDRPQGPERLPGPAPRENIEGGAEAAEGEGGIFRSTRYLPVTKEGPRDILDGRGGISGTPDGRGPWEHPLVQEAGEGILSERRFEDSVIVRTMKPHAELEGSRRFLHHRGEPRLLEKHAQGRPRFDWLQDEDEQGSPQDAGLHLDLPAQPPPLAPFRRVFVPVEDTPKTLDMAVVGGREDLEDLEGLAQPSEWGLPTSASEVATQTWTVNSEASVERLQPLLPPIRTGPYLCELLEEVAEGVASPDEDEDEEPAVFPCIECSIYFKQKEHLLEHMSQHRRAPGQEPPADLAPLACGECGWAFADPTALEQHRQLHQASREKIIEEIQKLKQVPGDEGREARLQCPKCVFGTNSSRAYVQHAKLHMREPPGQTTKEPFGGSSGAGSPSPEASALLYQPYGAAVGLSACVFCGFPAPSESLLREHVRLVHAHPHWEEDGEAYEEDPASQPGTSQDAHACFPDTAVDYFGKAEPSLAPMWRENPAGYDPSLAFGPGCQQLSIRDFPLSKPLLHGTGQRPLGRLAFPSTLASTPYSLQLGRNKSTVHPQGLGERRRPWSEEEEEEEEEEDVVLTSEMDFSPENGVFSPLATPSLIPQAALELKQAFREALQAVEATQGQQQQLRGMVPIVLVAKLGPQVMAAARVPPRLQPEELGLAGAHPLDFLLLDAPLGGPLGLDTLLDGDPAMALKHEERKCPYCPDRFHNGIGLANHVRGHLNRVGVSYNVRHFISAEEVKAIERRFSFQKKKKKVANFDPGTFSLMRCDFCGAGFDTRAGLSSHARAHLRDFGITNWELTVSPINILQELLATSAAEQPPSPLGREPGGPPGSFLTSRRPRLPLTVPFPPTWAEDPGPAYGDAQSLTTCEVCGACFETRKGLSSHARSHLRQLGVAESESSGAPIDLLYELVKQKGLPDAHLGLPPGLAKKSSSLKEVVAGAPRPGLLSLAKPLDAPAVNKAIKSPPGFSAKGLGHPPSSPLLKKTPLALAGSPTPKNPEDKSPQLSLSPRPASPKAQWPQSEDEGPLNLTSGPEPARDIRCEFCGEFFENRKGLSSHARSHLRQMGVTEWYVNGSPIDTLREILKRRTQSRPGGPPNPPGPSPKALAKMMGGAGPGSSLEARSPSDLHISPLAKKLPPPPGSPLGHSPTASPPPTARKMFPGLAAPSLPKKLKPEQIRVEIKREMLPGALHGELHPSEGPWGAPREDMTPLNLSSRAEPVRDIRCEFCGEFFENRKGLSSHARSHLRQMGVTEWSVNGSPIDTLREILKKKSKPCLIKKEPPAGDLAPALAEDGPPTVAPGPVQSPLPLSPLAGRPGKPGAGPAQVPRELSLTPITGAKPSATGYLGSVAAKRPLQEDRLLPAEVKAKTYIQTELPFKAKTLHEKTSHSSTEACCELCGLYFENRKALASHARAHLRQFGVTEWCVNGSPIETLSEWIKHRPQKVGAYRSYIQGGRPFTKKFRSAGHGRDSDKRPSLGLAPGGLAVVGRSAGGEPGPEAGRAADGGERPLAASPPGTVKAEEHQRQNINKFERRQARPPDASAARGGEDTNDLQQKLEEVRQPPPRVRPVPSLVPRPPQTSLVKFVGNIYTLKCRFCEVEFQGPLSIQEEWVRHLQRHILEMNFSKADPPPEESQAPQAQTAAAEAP
# UniProt P21796, whole entry, looked up: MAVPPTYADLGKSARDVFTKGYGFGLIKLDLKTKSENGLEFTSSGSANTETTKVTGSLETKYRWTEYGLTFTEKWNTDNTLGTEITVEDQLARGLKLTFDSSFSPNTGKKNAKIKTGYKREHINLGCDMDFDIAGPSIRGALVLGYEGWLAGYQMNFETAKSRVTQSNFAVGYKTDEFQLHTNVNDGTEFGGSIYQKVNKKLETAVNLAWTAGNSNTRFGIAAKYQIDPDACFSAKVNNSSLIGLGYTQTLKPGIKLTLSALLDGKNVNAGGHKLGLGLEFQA
# UniProt P08670, whole entry, looked up: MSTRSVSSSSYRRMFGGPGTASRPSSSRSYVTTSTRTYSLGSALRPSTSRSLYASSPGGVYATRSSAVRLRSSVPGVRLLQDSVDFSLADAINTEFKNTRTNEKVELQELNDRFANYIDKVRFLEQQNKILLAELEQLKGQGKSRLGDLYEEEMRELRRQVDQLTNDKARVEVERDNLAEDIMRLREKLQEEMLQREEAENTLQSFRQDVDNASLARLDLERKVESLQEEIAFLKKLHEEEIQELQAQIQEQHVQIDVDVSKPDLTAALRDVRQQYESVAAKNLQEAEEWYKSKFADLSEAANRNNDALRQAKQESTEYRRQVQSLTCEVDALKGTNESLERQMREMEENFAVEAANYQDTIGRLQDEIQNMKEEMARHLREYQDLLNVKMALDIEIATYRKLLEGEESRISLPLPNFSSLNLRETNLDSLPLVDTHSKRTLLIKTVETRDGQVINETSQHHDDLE
# UniProt O75554: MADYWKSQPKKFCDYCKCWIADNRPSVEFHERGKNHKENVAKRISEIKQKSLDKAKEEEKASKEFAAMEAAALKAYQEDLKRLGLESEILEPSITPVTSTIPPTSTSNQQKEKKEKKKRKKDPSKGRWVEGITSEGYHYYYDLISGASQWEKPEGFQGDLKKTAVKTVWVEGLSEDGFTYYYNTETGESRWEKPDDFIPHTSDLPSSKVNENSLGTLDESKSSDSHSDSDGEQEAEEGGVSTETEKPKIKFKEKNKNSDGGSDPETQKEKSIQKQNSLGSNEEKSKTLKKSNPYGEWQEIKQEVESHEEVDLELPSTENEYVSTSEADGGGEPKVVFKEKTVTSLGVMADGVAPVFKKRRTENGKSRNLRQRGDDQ
# Some of the results follow.
# Compound: CC1=C(C=C(C=C1)NC(=O)C2=CC(=CC=C2)C(C)(C)C#N)NC3=CC4=C(C=C3)N=CN(C4=O)C
# Test: log2 fold change, soluble protein after heating vs DMSO (PISA); higher = thermal stabilisation; K562 cells, 10 uM, 30 min; active = over 0.2 and 3.5 SD of the protein, either way, in both replicates (recomputed)
# Procedure, shortened: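 K562 cells at 2×10^6 cells/mL were treated with 10 μM compound for 30 min. Aliquots were heated for 3 min across 48°C-58°C, pooled, and extracted in PBS with 0.5% NP-40 at 4°C; soluble protein was the supernatant after 21,000xg for 90 min. Soluble protein was quantified by TMTpro 16plex LC-MS/MS with channel sums equalised, and reported as log2 fold change in thermal stability against DMSO controls, with values from duplicates.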
row,Target,log2 fold change
1,WAPL isoform 3 (UniProt Q7Z5K2),inactive: -0.038
2,VGLL4 isoform 4 (UniProt Q14135),inactive: -0.111
3,VPS13A (UniProt Q96RL7),inactive: -0.011
4,VPS53 isoform 4 (UniProt Q5VIR6),inactive: -0.037
5,WDR47 (UniProt O94967),inactive: -0.031
6,WIPI2 (UniProt Q9Y4P8),inactive: 0.032
7,WDR62 isoform 4 (UniProt O43379),inactive: -0.123
8,VPS11 (UniProt Q9H270),inactive: 0.016
9,VPS51 (UniProt Q9UID3),inactive: 0
10,VWA8 (UniProt A3KMH1),inactive: -0.07
11,WDR4 (UniProt P57081),inactive: -0.112
12,VPS13C (UniProt Q709C8),inactive: 0.005
13,WDR82 (UniProt Q6UXN9),inactive: 0.026
14,VEZT (UniProt Q9HBM0),inactive: 0.004
15,WDR45 (UniProt Q9Y484),inactive: 0.001
16,WIPF3 (UniProt A6NGB9),inactive: 0.026
17,WDR89 (UniProt Q96FK6),inactive: -0.02

# Given as tab-separated lines: part of the list above
row	Target	log2 fold change
9	VPS51 (UniProt Q9UID3)	inactive: 0
10	VWA8 (UniProt A3KMH1)	inactive: -0.07
11	WDR4 (UniProt P57081)	inactive: -0.112

# Next part

row,Target,log2 fold change
1,WDR34 (UniProt Q96EX3),inactive: -0.072
2,"VKORC1L1, A0A3B3ISV4",inactive: 0.039
3,WIZ (UniProt O95785),inactive: -0.064
4,VRK1 (UniProt Q99986),inactive: -0.089
5,WRAP73 (UniProt Q9P2S5),inactive: 0.016
6,VPS8 (UniProt Q8N3P4),inactive: -0.011
7,WDR36 (UniProt Q8NI36),inactive: -0.067
8,VPS41 (UniProt P49754),inactive: 0.015
9,VWDE (UniProt Q8N2E2),inactive: -0.014
10,VDAC1 (UniProt P21796),inactive: -0.025
11,VPS25 (UniProt Q9BRG1),inactive: 0.024
12,"WASHC2C, A0A096LPC5",inactive: -0.059
13,VIM (UniProt P08670),inactive: -0.036
14,VPS35 (UniProt Q96QK1),inactive: 0.003
15,WDR48 (UniProt Q8TAF3),inactive: 0.026
16,WBP4 (UniProt O75554),inactive: 0.105
